Data from patent US11278563B2, “Rapid release pharmaceutical formulations containing algal cellulose” (priority 2016, dated 2022).
For at least one compound, name, drawing or mass did not settle the structure.

Assay: Degree of drug crystallinity from weight normalized melting enthalpies (TGA heat flow)
Format: physicochemical
Details: melting event
Method: TGA was conducted on a Mettler TG50 apparatus (10 K min^−1; 35° C. to 20° C. above the melting point of the drug) on 10-20 mg samples in aluminium crucibles under a nitrogen atmosphere (60 mL min^−1). Both normal and heated 10% mixtures were analysed and compared to the pure crystalline substance of corresponding drug content, i.e. 1-2 mg. The temperature in the furnace was continuously monitored, and the heat flow curves were collected both for heating and cooling phase to record melting or re-crystallization events.
The weight normalized enthalpies of melting observed in cellulose-drug mixtures were calculated using the STARe Excellence software (Mettler Toledo) and compared to the weight normalized enthalpy for the pure crystalline drug, to give a rough estimate of the degree of the drug crystallinity (“Crl”) as follows.
[formula] where ΔHmelt is weight normalised melting enthalpy of the drug in a specific cellulose-drug blend [in Joules/g] and ΔHdrug is the melting enthalpy of a pure crystalline drug [in Joules/g]. X-Ray Diffraction (XRD)

## C[C@]12CC[C@@H]3c4ccc(O)cc4CC[C@H]3[C@@H]1CC[C@@H]2O [EST, β-estradiol]
  CrlEST (%): 100%
